For assay [1], the target named is TMK INTeractor 2 (TINT2), p35S::TINT2-SCFP3A^C (Arabidopsis thaliana). Description: split reporter.
Assay [2] deals with TMK INTeractor 4 (TINT4), p35S::TINT4-SCFP3A^C (Arabidopsis thaliana). Description: split reporter.
In assay [3] the target is TMK INTeractor 5 (TINT5), pUBQ10::TINT5-3xHA (Arabidopsis thaliana). Description: co-IP.
The target of assay [4] is TMK INTeractor 2 (TINT2), pUBQ10::TINT2-3xHA (Arabidopsis thaliana). As to the kind of experiment: co-IP.
For assay [5], the target named is TMK INTeractor 4 (TINT4), pUBQ10::TINT4-3xHA (Arabidopsis thaliana). Description: co-IP.
For assay [6], the target named is TMK INTeractor 1 (TINT1; LRR1), pUBQ10::TINT1-3xHA (Arabidopsis thaliana) (UniProt Q9FMD7). Description: co-IP.
Assay [7] deals with TMK INTeractor 7 (TINT7), pUBQ10::TINT7-3xHA (Arabidopsis thaliana). Description: co-IP.

Sequences of proteins named here, by UniProt entry; tags and fusion partners are left off. A change or cut given only in a name is not applied to a line headed by its entry.
UniProt Q9FMD7: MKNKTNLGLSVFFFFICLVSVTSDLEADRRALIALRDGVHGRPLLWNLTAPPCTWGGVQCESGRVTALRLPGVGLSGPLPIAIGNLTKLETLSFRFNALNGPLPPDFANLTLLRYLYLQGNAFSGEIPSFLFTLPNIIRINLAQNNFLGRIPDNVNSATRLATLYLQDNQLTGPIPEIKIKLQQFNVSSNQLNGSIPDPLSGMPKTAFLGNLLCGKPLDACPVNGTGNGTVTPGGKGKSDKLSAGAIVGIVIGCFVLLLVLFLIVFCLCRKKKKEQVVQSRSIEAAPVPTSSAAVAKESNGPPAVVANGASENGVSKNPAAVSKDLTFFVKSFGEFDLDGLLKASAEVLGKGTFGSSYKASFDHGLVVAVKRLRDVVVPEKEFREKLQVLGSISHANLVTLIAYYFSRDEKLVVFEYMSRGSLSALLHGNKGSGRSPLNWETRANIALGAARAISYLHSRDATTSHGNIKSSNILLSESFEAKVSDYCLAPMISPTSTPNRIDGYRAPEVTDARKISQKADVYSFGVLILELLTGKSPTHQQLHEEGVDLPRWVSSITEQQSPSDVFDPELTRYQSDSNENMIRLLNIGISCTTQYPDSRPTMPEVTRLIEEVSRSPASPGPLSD

These are yes or no findings as the source states them, for the method shown. In cells and extracts the contact can be indirect. A result given as binding can be weak or reduced; the word gives no strength. For some of these results: Sequences can lack the tags named with a protein.

B1: Transmembrane Kinase 1 (TMK1), p35S::TMK1-SCFP3A^N (receptor, UniProt P43298 24-942)
chain: DSDGDLSAMLSLKKSLNPPSSFGWSDPDPCKWTHIVCTGTKRVTRIQIGHSGLQGTLSPDLRNLSELERLELQWNNISGPVPSLSGLASLQVLMLSNNNFDSIPSDVFQGLTSLQSVEIDNNPFKSWEIPESLRNASALQNFSANSANVSGSLPGFLGPDEFPGLSILHLAFNNLEGELPMSLAGSQVQSLWLNGQKLTGDITVLQNMTGLKEVWLHSNKFSGPLPDFSGLKELESLSLRDNSFTGPVPASLLSLESLKVVNLTNNHLQGPVPVFKSSVSVDLDKDSNSFCLSSPGECDPRVKSLLLIASSFDYPPRLAESWKGNDPCTNWIGIACSNGNITVISLEKMELTGTISPEFGAIKSLQRIILGINNLTGMIPQELTTLPNLKTLDVSSNKLFGKVPGFRSNVVVNTNGNPDIGKDKSSLSSPGSSSPSGGSGSGINGDKDRRGMKSSTFIGIIVGSVLGGLLSIFLIGLLVFCWYKKRQKRFSGSESSNAVVVHPRHSGSDNESVKITVAGSSVSVGGISDTYTLPGTSEVGDNIQMVEAGNMLISIQVLRSVTNNFSSDNILGSGGFGVVYKGELHDGTKIAVKRMENGVIAGKGFAEFKSEIAVLTKVRHRHLVTLLGYCLDGNEKLLVYEYMPQGTLSRHLFEWSEEGLKPLLWKQRLTLALDVARGVEYLHGLAHQSFIHRDLKPSNILLGDDMRAKVADFGLVRLAPEGKGSIETRIAGTFGYLAPEYAVTGRVTTKVDVYSFGVILMELITGRKSLDESQPEESIHLVSWFKRMYINKEASFKKAIDTTIDLDEETLASVHTVAELAGHCCAREPYQRPDMGHAVNILSSLVELWKPSDQNPEDIYGIDLDMSLPQALKKWQAYEGRSDLESSTSSLLPSLDNTQMSIPTRPYGFAESFTSVDGR
In the case of B1, the binding entry in assay [1] and in assay [2] was “binds” each time.

B2: Transmembrane Kinase 1 (TMK1), endogenous (receptor, UniProt P43298 24-942)
chain: B1 chain
B2: the binding entry in assay [3], in assay [4], in assay [5] and in assay [6] was “binds” in each case.

B3: Transmembrane Kinase 1 (TMK1), FLAG-tagged (receptor, UniProt P43298 24-942)
chain: B1 chain
In the case of B3, the binding result in assay [7] is “binds”.

The record behind these values is publication doi:10.1101/2025.02.28.640727.
